According to patent US20040248801A1, “Methods and reagents for regulation of cellular responses in biological systems” (priority 2000, published 2004):
Some results were stated once for a whole list of compounds, not compound by compound.

How the values were obtained:
E. coli [1] = test: E. coli capillary accumulation assay; format: cell-based, Escherichia coli
Procedure: FIGS. 3A and 3B: Results of E. coli capillary accumulation assays. The number of bacteria accumulated is plotted versus the concentration of the attractant (galactose or compounds 1-4, Scheme 1) calculated on a saccharide residue basis. (A): Results are shown for capillaries filled with buffer alone, compound 1, and compound 2 or (B): buffer alone, compound 3 and compound 4 at the indicated concentrations. The vertical line at 1 mM indicates the concentration of maximum chemotaxis for the monomeric compound 1. […] Results are the average of 3 to 6 experiments performed in duplicate and error bars represent a single standard deviation. Partial permeabilization was required to obtain chemotaxis towards 4, and was utilized for all experiments.
E. coli were subjected to concentration gradients of compounds 1-4 in capillary accumulation assays to determine the concentration at which the maximum chemotactic response is achieved and the number of bacteria that accumulate at this maximum.
Concentrations of maximum chemotaxis of 3 and 4 are 100- and 5000-fold lower, respectively, than free galactose (FIG. 3B). […]
E. coli from an overnight culture were grown in LB to OD550 0.4-0.6, washed twice with E. coli chemotaxis buffer, and then partially permeabilized. […] Data was analyzed using the Q and Students tests.

E. coli [2] = test: toxicity and use as sole carbon source in E. coli; format: cell-based, Escherichia coli; settings: data not shown

SMILES: O=C(NCCOC1OC(CO)C(O)C(O)C1O)C1C[C@@H]2C=CC1C2 (some centres unmarked) [Compound 1]
- number of E. coli accumulated, compared with galactose as attractant (E. coli [1]): < 120,000 bacteria
- toxicity to E. coli (E. coli [2]): not toxic
